# Results from PubChem BioAssay AID540276 (National Center for Advancing Translational Sciences (NCATS), 2011).
# Screen size: about 300,000 compounds; about 5,400 (1.8%) were called active. The inconclusive results got no clear call from the source; some entries with a clear call stand among them for comparison. Calls come from the whole dose curve; tested in HEK293 cells. Potencies beside an inconclusive call are fits to weak or partial responses and may not hold up.
# Experiment: qHTS for inhibitors of binding or entry into cells for Marburg Virus
# Settings: Marburg virus pseudotyped entry inhibition, cell reporter; series mostly up to 37.8 µM
# Potency is the fitted concentration of half-maximal effect.
row,Structure (SMILES),Potency
1,Cc1nn(Cc2ccccc2Cl)c(C)c1NC(=O)c1cc(C(C)C)on1,"inconclusive: 28.2 µM [inhibitor, single point]"
2,CCOc1ccc(N(CC(=O)N2CCN(c3ccccc3OC)CC2)S(=O)(=O)c2ccc(C)cc2)cc1,"inconclusive: 35.5 µM [inhibitor, single point]"
3,Cc1ccc(C(C(=O)NC2CCCC2)N2CCCCC2)cc1 (stereo unspecified),inactive
4,CCOc1ccc(-n2c(C)nc3cc(C(=O)NCC4CCCO4)ccc32)cc1 (stereo unspecified),"inconclusive: 22.4 µM [inhibitor, partial curve, poor fit]"
5,COc1ccccc1-c1noc(CCC(=O)Nc2cc(C(F)(F)F)ccc2Cl)n1,"inconclusive: 11.6 µM [inhibitor, partial curve, poor fit]"
6,COCCCNC(=S)NC(=O)c1ccc(C)cc1,"inconclusive: 1.26 µM [activator, partial curve]"
7,OCCN1CCN(CC/C=C2/c3ccccc3Sc3ccc(C(F)(F)F)cc32)CC1,active: 8.91 µM
8,COc1ccc(NC(=O)c2ccc(Cl)nc2)cc1S(=O)(=O)N1CCCCC1,"inconclusive: 10 µM [inhibitor, partial curve, poor fit]"
9,Cc1ccc(NC(=O)c2cc3cc(C)ccc3n2C)cc1,"inconclusive: 3.55 µM [activator, partial curve, poor fit]"
10,CCC(CO)Nc1nc2ccc(Cl)cc2c2ccccc12 (stereo unspecified),"inconclusive: 35.5 µM [inhibitor, single point]"
11,C=CCn1c(SCC(=O)Nc2ccc(NC(=O)c3ccco3)c(OC)c2)nnc1-c1ccncc1,inactive
12,CN(c1ccc(C(=O)N2CCN(Cc3ccc4c(c3)OCO4)CC2)cc1)S(=O)(=O)c1ccccc1,"inconclusive: 1.46 µM [inhibitor, full curve, poor fit]"
13,CC(Oc1ccccc1)C(=O)Nc1ccc(C(N)=O)cc1 (stereo unspecified),inactive
14,O=C(C1CCCN(c2ncnc3c2nc2n3CCCCC2)C1)N1CCN(c2ccccc2F)CC1 (stereo unspecified),"inconclusive: 12.6 µM [inhibitor, partial curve, poor fit]"
15,CC(C)n1cc(C(=O)N2CCCC(N3CCN(c4cccc(Cl)c4)CC3)C2)cn1 (stereo unspecified),inactive
16,COc1cccc(OCc2cc(C(=O)N3C[C@H]4C[C@@H](C3)c3cccc(=O)n3C4)no2)c1,"inconclusive: 6.31 µM [activator, partial curve, poor fit]"
17,Cc1ccc(Nc2nnc(SCC(=O)c3ccc(Br)s3)s2)c(C)c1,"inconclusive: 10 µM [activator, partial curve, poor fit]"
18,O=C(CSCCc1ccccn1)Nc1cccnc1Cl,inactive
19,C=CCn1c(SCc2ccc(C(=O)NCCO)cc2)nc2sc(C)c(C)c2c1=O,"inconclusive: 35.5 µM [inhibitor, single point]"
20,O=C(NCCO)c1cc2ccccc2c(=O)s1,"inconclusive: 35.5 µM [activator, partial curve, poor fit]"
21,COC(=O)c1ccc(NC(=O)c2cccc(C)c2)cc1,inactive

row,Structure (SMILES),Potency
1,O=C(Nc1cccc(NC(=O)c2cccs2)c1)c1ccc2c(c1)OCO2,"inconclusive: 0.355 µM [activator, full curve, poor fit]"
2,Cc1ccc(C(=O)Nc2cccc(OCc3cc(=O)n4c5c(sc4n3)CCCC5)c2)cc1,inactive
3,Cc1cccc(S(=O)(=O)Nc2nc3ccccc3nc2OC(C)C)c1,inactive
4,CS(=O)(=O)c1ccc2nc(NC(=O)CCC(=O)c3cccs3)sc2c1,inactive
5,CC(C)c1nc(N2CCN(C(=O)c3ccco3)CC2)c(C#N)c2c1COC(C)(C)C2,"inconclusive: 35.5 µM [inhibitor, single point]"
6,Cc1cc(/C=N/n2cnnc2)c(O)c([N+](=O)[O-])c1,"inconclusive: 6.51 µM [activator, single point]"
7,CCOc1ccc(Oc2c(/C=N/NC(=O)COc3ccccc3OC)c(C)nn2-c2ccccc2)cc1,"inconclusive: 29.1 µM [inhibitor, single point]"
8,C=C(C)C(=O)/C=C/C=C/c1ccccc1,inactive
9,COc1ccc(CN(CCCN2CCOCC2)C(=O)Nc2cccc(Cl)c2)cc1OC,"inconclusive: 14.1 µM [inhibitor, single point]"
10,COc1ccccc1C(=O)Nc1cccc(NC(C)=O)c1,"inconclusive: 6.51 µM [activator, partial curve]"
11,Cc1cc(C)n(-c2nc3c(c(=O)[nH]c(=O)n3C)n2CC(O)c2ccccc2)n1 (stereo unspecified),"inconclusive: 4.47 µM [inhibitor, full curve, poor fit]"
12,CN1N=C(C(C)(C)C)CSC1=Nc1ccc(F)cc1,inactive
13,COc1ccc(CCNC(=O)c2cc(-c3cc(C)ccc3O)n[nH]2)cc1OC,"inconclusive: 8.91 µM [inhibitor, partial curve, poor fit]"
14,CN(C)c1ccc(-c2n(C)c3ccccc3[n+]2C)cc1,"inconclusive: 11.6 µM [inhibitor, partial curve, poor fit]"
15,O=C(NCc1ccc2c(c1)OCO2)c1ccc(COc2cc(Cl)ccc2Cl)o1,"inconclusive: 29.1 µM [inhibitor, single point]"
16,Fc1ccccc1N1CCN(C(c2cccs2)c2nnnn2CCc2ccccc2)CC1 (stereo unspecified),"inconclusive: 35.5 µM [inhibitor, single point]"
17,COc1cc(C2SCC(=O)Nc3c2c(=O)[nH]n3C2CCCCCC2)cc(OC)c1OC (stereo unspecified),"inconclusive: 0.164 µM [inhibitor, full curve, poor fit]"
18,CCn1c2ccccc2c2cc(NC(=O)CSc3nnc(-c4cccc(F)c4)o3)ccc21,"inconclusive: 12.6 µM [inhibitor, partial curve, poor fit]"
19,Cc1ccc(NC(=O)CN2C(=O)NC(C)(c3ccc(Cl)cc3)C2=O)cc1S(=O)(=O)N1CCOCC1 (stereo unspecified),"inconclusive: 25.1 µM [inhibitor, single point]"
20,CCN(C(=O)c1ccc(S(=O)(=O)N2CCCC2)cc1)C1CCS(=O)(=O)C1 (stereo unspecified),"inconclusive: 0.891 µM [inhibitor, full curve, poor fit]"

# Not a retest: 2 of the compounds above.
row,Structure (SMILES),Potency
4,CS(=O)(=O)c1ccc2nc(NC(=O)CCC(=O)c3cccs3)sc2c1,inactive
5,CC(C)c1nc(N2CCN(C(=O)c3ccco3)CC2)c(C#N)c2c1COC(C)(C)C2,"inconclusive: 35.5 µM [inhibitor, single point]"
